Data as given in PubChem BioAssay AID602196 (INSERM, 2012).
Aim: 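Knock-downs that protect lung cancer cells from cisplatin or sensitise them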. Cell system: human A549 lung cancer cells. Reagents: siRNA pair against human genes. Duration: 48 h transfection before cisplatin; time from cisplatin to read-out not stated. Treatment: cisplatin at a dose killing half of control-siRNA cells; exact dose and duration not given. Read-out: 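Shift in cisplatin death relative to control siRNA, from -50 (all cells die) to +50 (no cells die); siRNAs harmful on their own scored 0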. Direction: two-siRNA summed score (-2 to +2): higher = both siRNAs protect from cisplatin killing; -2 means both sensitise. Active means: 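siRNAs harmful alone (LDH or WST-1) get 0; others get +1 for less and -1 for more cisplatin killing; genes are active when the two siRNAs give the same sign, summing to ±2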. Meaning of the calls: active = both siRNAs shift cisplatin killing the same way; inactive = no consistent shift, or siRNA harmful alone.
The whole screen tested about 23,000 reagents; shown is a part drawn at random. 455 of all reagents (2%) were called active. 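Active includes both protection and sensitisation; some change values fall well beyond the stated -50 to +50 range.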 A number with no mark means an inactive call. Further read-outs or replicates are left out here. The record does not give: the amount of reagent.

{"gene": "LOC149501", "two-siRNA summed score (-2 to +2)": 1}
{"gene": "ADA", "two-siRNA summed score (-2 to +2)": "2 (active)"}
{"gene": "SLC9A3", "two-siRNA summed score (-2 to +2)": 0}
{"gene": "SEMA3F", "two-siRNA summed score (-2 to +2)": 0}
{"gene": "LOC441681", "two-siRNA summed score (-2 to +2)": 0}
{"gene": "LMBRD1", "two-siRNA summed score (-2 to +2)": 1}
{"gene": "LOC400201", "two-siRNA summed score (-2 to +2)": 0}
{"gene": "EPS8L1", "two-siRNA summed score (-2 to +2)": 1}

Called active, among the entries above:
{"gene": "ADA", "two-siRNA summed score (-2 to +2)": "2 (active)"}

The results go on.
{"gene": "GAS2", "two-siRNA summed score (-2 to +2)": -1}
{"gene": "LOC440935", "two-siRNA summed score (-2 to +2)": 0}
{"gene": "NDUFA8", "two-siRNA summed score (-2 to +2)": -1}
{"gene": "MYL7", "two-siRNA summed score (-2 to +2)": 0}
